The results in this text go back to paper PMC9838529.

By UniProt entry, the sequences of proteins in these tests, tags left out. Where a name states a change or a piece, a line headed by the entry shows the natural chain unless it says otherwise. Chains listed by the source or under a name are the forms on record and can include a tag or linker.
disulphide-trapped C9 variant (F262C/V405C) (P02748, form named): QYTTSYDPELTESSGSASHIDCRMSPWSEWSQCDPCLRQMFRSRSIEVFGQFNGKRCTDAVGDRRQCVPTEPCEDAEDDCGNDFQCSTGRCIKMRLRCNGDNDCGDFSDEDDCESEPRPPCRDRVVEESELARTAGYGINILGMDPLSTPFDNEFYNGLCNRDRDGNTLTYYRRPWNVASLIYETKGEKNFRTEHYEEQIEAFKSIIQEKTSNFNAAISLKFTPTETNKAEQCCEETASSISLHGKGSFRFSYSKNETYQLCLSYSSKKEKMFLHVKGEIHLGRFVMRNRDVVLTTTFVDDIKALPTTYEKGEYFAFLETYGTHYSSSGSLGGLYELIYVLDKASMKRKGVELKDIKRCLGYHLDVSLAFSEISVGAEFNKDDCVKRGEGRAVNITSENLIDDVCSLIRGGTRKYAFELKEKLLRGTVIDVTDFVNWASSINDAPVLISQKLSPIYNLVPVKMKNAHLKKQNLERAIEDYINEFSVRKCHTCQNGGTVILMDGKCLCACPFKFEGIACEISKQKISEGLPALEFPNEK

Results are given in words; binding and its absence hold for the method and conditions named.

This test addresses disulphide-trapped C9 variant (F262C/V405C) (human) (UniProt P02748). In words: AUC; sedimentation velocity, C9 at 0.5 mg/ml (~7.9 μM) in 10 mM HEPES pH 7.2, 150 mM NaCl, 1 mM EDTA, 25 °C; both purified.

For the substance “disulphide-trapped C9 variant (F262C/V405C) (from UniProt P02748 22-559)”, the binding result is “no binding (tested: ~7.5 µM)”.
